Measured values published in article PMC10966536.

Test system: NmPAL (PAS-ANTAR-LOV photoreceptor) (Nakamurella multipartita)
Experiment: RiboGreen interaction assay
Conditions: recombinant protein

Row | Sequence | binding result (blue light) | binding result (darkness)
1 | GCGGCCGCGUACAUCCAGCUGAUGAGUCCCAAAUAGGACAAAAGGUUCAGCAGCGAGCCUCCUGGAUUCCAGGCGGCCGC [OzS5 (cleavage-deficient, G12A)] | binds | binds more weakly
2 | GCGGCCGCGUACAUCCAGCUGAUGAGUCCCAAAUAGGACAAAAGGUUCAGCUGCGAGCCUCCUGGAUUCCAGGCGGCCGC [OzS5M21 (cleavage-deficient, G12A)] | no binding | –
3 | GCGGCCGCGUACAUCCAGCUGAUGAGUCCCAAAUAGGACAAAAGUUCAGCAGCGAGCUCCUGGAUUCCAGGCGGCCGC [OzS4 (cleavage-deficient, G12A)] | binds | binds more weakly
4 | GCGGCCGCGUACAUCCAGCUGAUGAGUCCCAAAUAGGACAAAAGUUCAGCUGCGAGCUCCUGGAUUCCAGGCGGCCGC [OzS4M21 (cleavage-deficient, G12A)] | no binding | –

The exact form of at least one protein or probe is not confirmed. A negative result means that nothing was seen under these conditions. A weaker result is weaker than the reference pair of the same experiment. At least one verdict was read from the data and is not stated in words by the source.
